# Source: PubChem BioAssay AID504842 (National Center for Advancing Translational Sciences (NCATS), 2011)
# Hit rate of the full screen: of about 330,000 compounds, about 100 (0.03%) were called active. The shares of active, inactive and inconclusive entries below differ from those in the screen. The call rests on the fitted dose curve; in most records, active means well fitted inhibition curve with a large enough effect; inconclusive means small, poorly fitted or top-dose-only effect; inactive means flat fitted curve, though single readings scatter. Potencies of inconclusive entries are doubtful fits and often do not repeat.
# Tested on: Chaperonin Mm-Cpn (Methanococcus maripaludis)
# Assay: Inhibitors of TCP-1 ring complex (TRiC) of Methanococcus maripaludis (MmCpn): qHTS; further: nearly all actives have a fitted effect of over 80% in size;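 on Potency: enzyme at 25 nM with ATP substrate at 10 µM during the reaction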
# Details: purified Mm-Cpn ATPase, ADP Transcreener TR-FRET
# How it was run: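 Quantitative HTS used 25 nM Mm-CPN and 10 uM ATP in magnesium/KCl Tris buffer, pH 7.4, with 1 mM DTT. Hydrolysis ran 30 min at 37°C; ADP was read by HTRF.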
# Potency means the concentration at half of the fitted maximal effect.
row,Structure (SMILES),Potency
1,CC12C=CC3(O1)C(C(=O)N(c1cccnc1)C3C(=O)NC1CCCCC1)C2C(=O)Nc1ccccc1 (configuration not stated),"inconclusive: 15.8 µM [inhibitor, single point]"
2,COc1ccc(CCNC(=O)/C(C#N)=C/c2cccc(OCc3ccccc3)c2)cc1OC,"inconclusive: 708 µM [inhibitor, partial curve, poor fit]"
3,Cc1csc(NC(=O)CSc2nccn2Cc2ccco2)n1,"inconclusive: 100 µM [inhibitor, single point]"
4,CCCCn1c(SCC(=O)N2CCOCC2)nc2ccccc2c1=O,"inconclusive: 79.4 µM [inhibitor, single point]"
5,Clc1ccccc1CSc1nnc(-c2ccccn2)n1Cc1ccco1,inactive
6,Nc1nnc(SCC(=O)NNC(=O)c2ccc(Cl)cc2)s1,"inconclusive: 100 µM [inhibitor, single point]"
7,CSc1cccc(NC(=O)CSc2ncccc2C(=O)Oc2cccc([N+](=O)[O-])c2)c1,inactive
8,CC(=O)C1=C(O)CC(C)(C)CC1=NCCc1nc2ccccc2[nH]1,inactive
9,Cc1sc2ncnc(SCC(=O)c3ccc4c(c3)OCCO4)c2c1-c1ccccc1,"inconclusive: 112 µM [inhibitor, partial curve, poor fit]"
10,CCOC(=O)CSc1nc2c(c(=O)[nH]c(=O)n2C)n1C/C=C(/C)Cl,inactive
11,CC(C)C[C@H](NC(=O)NCc1ccc(Cl)cc1)C(=O)O,"inconclusive: 22.4 µM [inhibitor, single point]"
12,O=C(OCC#CCSc1nnc(-c2cccc3ccccc23)o1)c1cccc2[nH]ccc12,"inconclusive: 251 µM [inhibitor, partial curve, poor fit]"
13,COc1cc2nc(Nc3cccc(F)c3)nc(N)c2cc1OC,inactive
14,Cc1cn(CCC(=O)Nc2ccccc2N2CCOCC2)c2ccccc12,inactive
15,S=C(Nc1ccc2nsnc2c1)NC1CCCCC1,"inconclusive: 141 µM [inhibitor, partial curve, poor fit]"
16,CCc1cccc(NC(=O)C2CCN(S(=O)(=O)c3ccc4c(c3)CC(C)N4C(C)=O)CC2)c1 (configuration not stated),"inconclusive: 89.1 µM [inhibitor, single point]"
17,c1ccc2c(c1)[nH]c1c3ccccc3sc21,"inconclusive: 89.1 µM [inhibitor, partial curve, poor fit]"
18,COc1ccccc1C(=O)N/N=C(\C)c1ccc(NC(=O)C2CC2)cc1,inactive
19,COCCNC(=O)C(c1ccc(C)o1)N(Cc1ccc(OC)cc1)C(=O)Cn1nnc2ccccc21 (configuration not stated),"inconclusive: 100 µM [inhibitor, single point]"
20,Cc1cccc(NC(=O)COc2cccc3c2CCN(Cc2ccccc2)C3=O)c1C,"inconclusive: 44.7 µM [inhibitor, single point]"
21,CC(C)(C)N1CC(OC(N)=O)C1,"inconclusive: 100 µM [inhibitor, single point]"
22,CN(Cc1ccc(Cl)s1)C(=O)CN1C(=O)N(C)C2(CCCCC2)C1=O,"inconclusive: 15.8 µM [inhibitor, single point]"
23,CCN(CC)S(=O)(=O)c1ccc(N=Nc2c(C)[nH]n(C(N)=S)c2=O)cc1,inactive
24,O=C(CCNc1cc(Cl)cc(Cl)c1)c1cccs1,inactive

row,Structure (SMILES),Potency
1,O=C(NC(=S)NNC(=O)c1ccc(Cl)cc1Cl)c1cccnc1,inactive
2,CCN1CCN(C(=O)c2cc3ccc(OC)cc3[nH]2)CC1,inactive
3,O=C(COC(=O)C1CC2C=CC1C2)Nc1cccc(S(=O)(=O)N2CCOCC2)c1 (configuration not stated),inactive
4,COc1ccccc1-c1coc2c(CN3CCC(C)CC3)c(O)ccc2c1=O,"inconclusive: 224 µM [inhibitor, partial curve, poor fit]"
5,Cc1cccc(NC(=O)COC(=O)Cc2c[nH]c3ccccc23)c1C,"inconclusive: 70.8 µM [inhibitor, partial curve, poor fit]"
6,O=C(COC(=O)c1c2c(nc3ccccc13)CCCCC2)c1ccc(Cl)s1,"inconclusive: 100 µM [inhibitor, single point]"
7,O=S1(=O)N=C(Nc2nncs2)c2ccccc21,inactive
8,O=c1[nH]c(/C=C\c2cccc(F)c2)nc(O)c1[N+](=O)[O-],inactive
9,COc1cc(C(=O)OCC(=O)NC(=O)c2cccn2C)ccc1OC(F)F,"inconclusive: 25.1 µM [inhibitor, single point]"
10,c1ccc(Nc2nc(-c3cccnc3)cs2)nc1,inactive
11,COc1ccc(/C=C2/C(=N)N3N=C(CC(=O)N4CCCC4)SC3=NC2=O)cc1OC,"inconclusive: 100 µM [inhibitor, single point]"
12,Cc1c(C(=O)N2CCOCC2)oc2ccc(S(=O)(=O)N3CCCC3)cc12,active: 35.5 µM
13,COc1ccc([N+](=O)[O-])cc1NC(=S)NC(NC(=O)C(c1ccccc1)c1ccccc1)C(Cl)(Cl)Cl (configuration not stated),"inconclusive: 100 µM [inhibitor, single point]"
14,CCC1Sc2ccc(S(=O)(=O)Nc3ccc(OC)c(OC)c3)cc2NC1=O (configuration not stated),inactive
15,COC(=O)CCSCC(=O)N1N=C(c2ccc(Br)cc2)CC1c1cccc(OC)c1OC (configuration not stated),"inconclusive: 178 µM [inhibitor, partial curve, poor fit]"
16,O=C(COC(=O)C1CCCO1)Nc1nc(-c2ccc(F)cc2)cs1 (configuration not stated),"inconclusive: 14.1 µM [inhibitor, single point]"
17,Oc1ccc2cccnc2c1,inactive
18,O=C(Nc1ccncc1)c1cc(-c2ccccn2)nc2ccc(Br)cc12,active: 44.7 µM
19,O=S(=O)(NCC(c1ccc2c(c1)OCO2)N1CCOCC1)c1ccc(Br)cc1 (configuration not stated),inactive
20,Cc1cc(C(=O)Nc2ccccc2C(=O)N2CCCCC2)ccc1[N+](=O)[O-],"inconclusive: 63.1 µM [inhibitor, single point]"
21,O=C(CCC(=O)N1CCN(C2CCCCC2)CC1)Nc1nnc(C(F)(F)F)s1,inactive
22,Nc1c(S(=O)(=O)O)cc(NC(=O)c2ccccc2)c2c1C(=O)c1ccccc1C2=O,inactive
23,COc1ccc(OCC(=O)Nc2ccc3oc(-c4ccncc4)nc3c2)cc1,"inconclusive: 89.1 µM [inhibitor, partial curve, poor fit]"
24,COc1c(Cl)cc(Cl)cc1C(=O)Nc1ccc(C(=O)O)cc1,"inconclusive: 22.4 µM [inhibitor, single point]"

# Three entries already listed, arranged by SMILES length, rising:
row,Structure (SMILES),Potency
1,O=C(NC(=S)NNC(=O)c1ccc(Cl)cc1Cl)c1cccnc1,inactive
18,O=C(Nc1ccncc1)c1cc(-c2ccccn2)nc2ccc(Br)cc12,active: 44.7 µM
20,Cc1cc(C(=O)Nc2ccccc2C(=O)N2CCCCC2)ccc1[N+](=O)[O-],"inconclusive: 63.1 µM [inhibitor, single point]"

# An excerpt of these results, tab-delimited:
row	Structure (SMILES)	Potency
14	CCC1Sc2ccc(S(=O)(=O)Nc3ccc(OC)c(OC)c3)cc2NC1=O (configuration not stated)	inactive
15	COC(=O)CCSCC(=O)N1N=C(c2ccc(Br)cc2)CC1c1cccc(OC)c1OC (configuration not stated)	inconclusive: 178 µM [inhibitor, partial curve, poor fit]

# Remaining list, next part.

row,Structure (SMILES),Potency
1,COc1ccc(/C=N/NC(=O)CCN2CCCCC2c2cccnc2)cc1Cn1cc([N+](=O)[O-])cn1 (configuration not stated),"inconclusive: 14.1 µM [inhibitor, single point]"
2,O=C(Cn1nnc(-c2ccccc2)n1)Nc1ccccc1N1CCOCC1,"inconclusive: 14.1 µM [inhibitor, single point]"
3,CCOC(=O)C1CCN(c2c(NCc3ccc(C(=O)NC4CCCC4)cc3)c(=O)c2=O)CC1,"inconclusive: 14.1 µM [inhibitor, single point]"
4,CCn1c(=O)cc(OCC(=O)NCc2ccc(C)o2)c2ccccc21,"inconclusive: 28.2 µM [inhibitor, single point]"
5,Cc1cccc(NC(=O)c2ccc3c(c2)C(=O)N(Cc2cccnc2)C3=O)c1C,"inconclusive: 17.8 µM [inhibitor, single point]"
6,COc1cc(/C=C/C(=O)O)cc(S(=O)(=O)N(CC(C)C)CC(C)C)c1OC,"inconclusive: 15.8 µM [inhibitor, single point]"
7,O=C(Nc1ccccc1F)c1ccc(-n2cncn2)nc1,"inconclusive: 100 µM [inhibitor, single point]"
8,CN(CCNC(=O)C1CC(=O)N(c2ccc(F)c(Cl)c2)C1)Cc1ccccc1 (configuration not stated),"inconclusive: 15.8 µM [inhibitor, single point]"
9,N#C/C(=C1\C(=O)Nc2c(Cl)cc(Cl)cc21)c1nnc2n1CCCCC2,inactive
10,COc1ccc(N2CCN(CC(=O)Nc3ncc(C)s3)CC2)cc1,inactive
11,COc1ccc(NC(=O)CN(C)C(=O)c2oc3ccccc3c2C)cc1,"inconclusive: 70.8 µM [inhibitor, single point]"
12,COc1cccc(C(=O)Nc2ccc(-c3nc4ccccc4o3)c(O)c2)c1,"inconclusive: 100 µM [inhibitor, single point]"
13,CCCn1nc(Oc2nc(SC)nc(N(C)C)n2)ccc1=O,inactive
14,COc1nc(-c2ccccc2)ccc1-c1noc(-c2cccnc2)n1,inactive
15,Cn1c(N)c(C(=O)COC(=O)c2cc(C(F)(F)F)nc3ccccc23)c(=O)n(C)c1=O,inactive
16,Cc1cccc(OCc2nn[nH]n2)c1C,"inconclusive: 100 µM [inhibitor, single point]"
17,O=C(/C=C/c1ccccc1F)c1cccc([N+](=O)[O-])c1,inactive
18,CCOc1ccccc1NC(=O)C(Sc1nnc2ccccn12)c1ccccc1 (configuration not stated),"inconclusive: 100 µM [inhibitor, single point]"
19,COc1ccc(-c2oc3cccnc3c2C#CC2(O)CCCCC2)cc1,"inconclusive: 100 µM [inhibitor, single point]"
20,COC(=O)c1ccccc1NC(=O)CN1CCc2ccccc2C1,"inconclusive: 22.4 µM [inhibitor, single point]"
21,c1ccc(-c2cncn2-c2ccccc2)cc1,"inconclusive: 10 µM [inhibitor, single point]"
22,C[C@@H](C(=O)Nc1ccc(OC(F)F)c(Cl)c1)N1C(=O)C2CC=CCC2C1=O (some centres not stated),"inconclusive: 35.5 µM [inhibitor, single point]"
23,CC(Oc1ccc(Cl)cc1Cl)C(=O)NNC(=O)C(=O)N1CCCCC1 (configuration not stated),inactive
24,O=C1C2ON(c3ccc(Cl)cc3)C(c3ccco3)C2C(=O)N1c1ccccc1 (configuration not stated),inactive
